{"source": "PubChem BioAssay AID590", "about": "(National Center for Advancing Translational Sciences (NCATS), 2007)", "note": "Hit rate of the full screen: of about 59,000 compounds, about 6,500 (11%) were called active. This list was built around the results that the source calls inconclusive (neither active nor inactive); the mix of calls is not that of the screen. No stated cut-off is given here; in the data, active means max dye-equivalent concentration above about 10 nM; inconclusive means mostly about 1.1 nM to 9.6 nM; inactive means weaker than that.", "data": [{"test": "qHTS Assay for Spectroscopic Profiling in A350 Spectral Region", "settings": "Compound autofluorescence, 340/450 nm, Alexa 350 dye-equivalents; hits give high values", "values": [{"molecule": "CCC1Oc2ccccc2N(CC(=O)NCCCN2CCCCC2CC)C1=O", "note": "(stereo unspecified)", "max dye-equivalent concentration": "inconclusive: 2 nM"}, {"molecule": "COCCCN1C(=O)C(=O)/C(=C(/O)c2ccc(OC(C)C)c(C)c2)C1c1ccncc1", "note": "(stereo unspecified)", "max dye-equivalent concentration": "inconclusive: 1.5 nM"}, {"molecule": "Cc1nn(-c2ccccc2)c2sc(C(=O)C(C#N)c3ccccn3)cc12", "note": "(stereo unspecified)", "max dye-equivalent concentration": "inconclusive: 2.4 nM"}, {"molecule": "CCOC(=O)c1cnc(N2CCOCC2)[nH]c1=O", "max dye-equivalent concentration": "inactive"}, {"molecule": "CCCC(=O)Nc1ccc(Cl)c(NC(=O)c2ccco2)c1", "max dye-equivalent concentration": "inconclusive: 1.3 nM"}, {"molecule": "Cc1cc(NC(=O)CCS(=O)(=O)c2nc(-c3ccccc3)cc(C(F)(F)F)n2)no1", "max dye-equivalent concentration": "inactive"}, {"molecule": "Cc1nc2nc(SCC(=O)N3CCOCC3)nn2c(C)c1Cc1c(F)cccc1Cl", "max dye-equivalent concentration": "inactive"}, {"molecule": "COc1cc2[nH]c(=O)n(CCC(=O)NCc3cccnc3)c(=O)c2cc1OC", "max dye-equivalent concentration": "inconclusive: 1.3 nM"}, {"molecule": "CN1/C(=C\\C(=O)c2cccs2)Sc2ccccc21", "max dye-equivalent concentration": "inconclusive: 5.3 nM"}, {"molecule": "COc1cccc(N2CCN(C(=O)CCn3c(=S)[nH]c4cc5c(cc4c3=O)OCO5)CC2)c1", "max dye-equivalent concentration": "inconclusive: 4.1 nM"}, {"molecule": "O=C(Nc1ccccc1)N1CC[C@@]2(CCCN(C(=O)c3ccco3)C2)C1", "max dye-equivalent concentration": "inactive"}, {"molecule": "Nc1ccc(Sc2nnnn2-c2ccccc2)c(Cl)c1", "max dye-equivalent concentration": "inconclusive: 1.1 nM"}, {"molecule": "CCOC(=O)c1cc(-c2ccc(C)o2)nn1CCC#N", "max dye-equivalent concentration": "inconclusive: 2.1 nM"}, {"molecule": "CCOC(=O)c1c(C)cccc1OCC(N)=O", "max dye-equivalent concentration": "active: 1400 nM"}, {"molecule": "Cc1ccc(S(=O)(=O)N2CCN(C(=O)CN3CCOCC3)C2)cc1", "max dye-equivalent concentration": "inconclusive: 4.6 nM"}, {"molecule": "CN1CCN(c2ncc3nc(-c4ccc(Cl)cc4)c(=O)n(C4CC4)c3n2)CC1", "max dye-equivalent concentration": "active: 75 nM"}, {"molecule": "Cc1cc(-c2ccc(Cl)cc2)n2nc(N)nc2n1", "max dye-equivalent concentration": "active: 58 nM"}, {"molecule": "CN(C(=O)c1cnccn1)c1nnc(-c2cnccn2)s1", "max dye-equivalent concentration": "inconclusive: 1.7 nM"}, {"molecule": "CCOC(=O)c1ccc(-c2nnc(-c3ccc(Cl)cc3Cl)o2)cc1", "max dye-equivalent concentration": "inactive"}, {"molecule": "CS(=O)(=O)N(CC(=O)Nc1cccc(F)c1)Cc1ccccc1", "max dye-equivalent concentration": "inconclusive: 2.7 nM"}, {"molecule": "COc1ccc(C2=NOC(C(=O)NC3CCCCC3)C2)cc1OC", "note": "(stereo unspecified)", "max dye-equivalent concentration": "inconclusive: 1.1 nM"}, {"molecule": "COc1ccc(-n2nc(C(=O)NCC(=O)NCC3CCCO3)c3ccccc3c2=O)c(OC)c1", "note": "(stereo unspecified)", "max dye-equivalent concentration": "inactive"}, {"molecule": "CCOc1ccc(-c2cc(C(=O)NCCCN3CCN(CC)CC3)c3ccccc3n2)cc1", "max dye-equivalent concentration": "active: 290 nM"}, {"molecule": "CC(C)c1nc2oc3c(NCC4CCCO4)ncnc3c2c2c1CCC2", "note": "(stereo unspecified)", "max dye-equivalent concentration": "inconclusive: 1.3 nM"}, {"molecule": "CCOC(=O)c1ccc(COc2nc3ccccc3nc2-c2ccccc2NC(C)=O)o1", "max dye-equivalent concentration": "inconclusive: 5.9 nM"}, {"molecule": "CCCCOC(=O)C1CCCC(C(=O)OCCCC)N1", "note": "(stereo unspecified)", "max dye-equivalent concentration": "inactive"}, {"molecule": "CCC(C)(C)n1nnnc1C(c1cc2ccc(OC)cc2[nH]c1=O)N1CCN(C2CCCCC2)CC1", "note": "(stereo unspecified)", "max dye-equivalent concentration": "inconclusive: 9 nM"}, {"molecule": "CC(=O)Nc1nc(C)c(-c2csc(Nc3ccc(O)cc3)n2)s1", "max dye-equivalent concentration": "inactive"}, {"molecule": "O=c1ccsn1Cc1ccccc1", "max dye-equivalent concentration": "active: 13 nM"}, {"molecule": "COc1cccc(-c2cc(N(C)Cc3ccco3)ncn2)c1", "max dye-equivalent concentration": "inconclusive: 6.6 nM"}, {"molecule": "CC1CCN(c2ccccc2N)CC1", "max dye-equivalent concentration": "active: 16 nM"}, {"molecule": "CN1CCN(c2ncc3ncc(=O)n(C[C@H]4CCCO4)c3n2)CC1", "max dye-equivalent concentration": "active: 78 nM"}, {"molecule": "Cc1cc(C(=O)CSc2nc3ccccc3[nH]2)c(C)n1C", "max dye-equivalent concentration": "inconclusive: 5.2 nM"}, {"molecule": "CSc1nc(N)nc(SCC(=O)c2ccc(C)cc2)c1C#N", "max dye-equivalent concentration": "active: 2300 nM"}, {"molecule": "Cc1nn(C(C)C(=O)O)c(=O)c2c1sc1ccccc12", "note": "(stereo unspecified)", "max dye-equivalent concentration": "inconclusive: 2.2 nM"}, {"molecule": "CCOC(=O)C1=C(C)N(C)C(C)=C(C(=O)OCC)C1c1ccncc1", "max dye-equivalent concentration": "inconclusive: 5.6 nM"}, {"molecule": "COc1cccc2[nH]c(-c3ccccn3)nc12", "max dye-equivalent concentration": "inconclusive: 1.3 nM"}, {"molecule": "O=C(O)c1[nH]c2ccccc2c1NS(=O)(=O)Cc1ccccc1", "max dye-equivalent concentration": "inconclusive: 2.1 nM"}, {"molecule": "O=C(CSCc1ccccc1Cl)N1CCN(c2ccccn2)CC1", "max dye-equivalent concentration": "inactive"}, {"molecule": "O=C(COc1cc(Cl)c(Cl)cc1Cl)NCCN1CCOCC1", "max dye-equivalent concentration": "inconclusive: 6.7 nM"}, {"molecule": "CS(=O)(=O)N1CCCC(C(=O)NCc2ccccn2)C1", "note": "(stereo unspecified)", "max dye-equivalent concentration": "inactive"}, {"molecule": "CCCn1c(N2CCN(CC(=O)c3c[nH]c4ccccc34)CC2)nc2c1c(=O)[nH]c(=O)n2C", "max dye-equivalent concentration": "active: 48 nM"}, {"molecule": "COCCNc1cc(C)nc2c3c(C)cc(C)nc3nn12", "max dye-equivalent concentration": "active: 12000 nM"}, {"molecule": "COC(=O)C(NC(C)=O)(Nc1ccccn1)C(F)(F)F", "note": "(stereo unspecified)", "max dye-equivalent concentration": "inconclusive: 4.5 nM"}, {"molecule": "COCCn1c(SCc2ccccc2Cl)nc2c1c(=O)[nH]c(=O)n2C", "max dye-equivalent concentration": "inconclusive: 1.1 nM"}, {"molecule": "O=C(NCSc1ccncn1)c1ccccc1", "max dye-equivalent concentration": "inconclusive: 4.5 nM"}, {"molecule": "Cc1ccc2c(c1)N(CCC(=O)NCCCOC(C)C)C(=O)C(C)O2", "note": "(stereo unspecified)", "max dye-equivalent concentration": "inactive"}, {"molecule": "O=S1(=O)CC(NCc2ccccc2)C(Nc2ccc(Cl)cc2)C1", "note": "(stereo unspecified)", "max dye-equivalent concentration": "inactive"}, {"molecule": "COc1ccccc1-n1nnnc1SCc1ccccc1", "max dye-equivalent concentration": "inconclusive: 2.8 nM"}, {"molecule": "N#Cc1ccc(CN2CCC3(CC2)CCN(C(=O)c2cc(C(F)(F)F)cc(C(F)(F)F)c2)CC3)cc1", "max dye-equivalent concentration": "inactive"}, {"molecule": "Cn1cccc1C1NC(=O)c2c(sc3c2CCC(C(C)(C)C)C3)N1", "note": "(stereo unspecified)", "max dye-equivalent concentration": "inconclusive: 8.9 nM"}, {"molecule": "O=c1c(-c2cccs2)nc2cnc(N3CCOCC3)nc2n1Cc1cccs1", "max dye-equivalent concentration": "inconclusive: 3.1 nM"}, {"molecule": "CCN1CCN(CC(O)COc2ccc(C)c(C)c2)CC1", "note": "(stereo unspecified)", "max dye-equivalent concentration": "inconclusive: 6.1 nM"}, {"molecule": "Cc1cc(C)cc(NC(=O)CSc2nnc(-c3ccccc3Br)o2)c1", "max dye-equivalent concentration": "inconclusive: 3.2 nM"}, {"molecule": "Cc1cn2c(-c3cccnc3)nnc2s1", "max dye-equivalent concentration": "inactive"}, {"molecule": "COC(=O)NCCOC(=O)N(O)c1ccc(Br)cc1", "max dye-equivalent concentration": "inactive"}, {"molecule": "CC(=O)Nc1nc(-c2cccs2)cs1", "max dye-equivalent concentration": "inconclusive: 7.6 nM"}, {"molecule": "CCCCCn1c(=O)c(C(=O)OCC)c(O)c2ccccc21", "max dye-equivalent concentration": "inconclusive: 2.1 nM"}, {"molecule": "Cc1cc(-c2nnc(-c3cc4ccccc4oc3=O)o2)c(C)n1-c1ccccc1", "max dye-equivalent concentration": "inconclusive: 1.8 nM"}, {"molecule": "CC[C@H](C)N(C)C(=O)c1cc2ccccc2c(-c2ccccc2Cl)n1", "max dye-equivalent concentration": "inconclusive: 7.8 nM"}, {"molecule": "COC(=O)Nc1cc(C(F)(F)F)ccc1N1CCN(c2ccccc2)CC1", "max dye-equivalent concentration": "inactive"}, {"molecule": "Cc1cc(C2C(C#N)=C(N)SC(N)=C2C#N)c(C)s1", "max dye-equivalent concentration": "inactive"}, {"molecule": "CCN(CC)C(=O)Cn1nnc(-c2ccc(C)o2)n1", "max dye-equivalent concentration": "inconclusive: 5 nM"}, {"molecule": "O=C(O)C1C2C=CC(C3CC23)C1C(=O)NCCc1ccccc1", "note": "(stereo unspecified)", "max dye-equivalent concentration": "inactive"}, {"molecule": "Cc1ccc2cc3cc(C(=O)N(C)C4CCCCC4)oc3nc2c1", "max dye-equivalent concentration": "inconclusive: 2.5 nM"}, {"molecule": "CCN1C(=O)/C(=C/N2CC(C)CC(C)C2)SC1=S", "note": "(stereo unspecified)", "max dye-equivalent concentration": "inconclusive: 2.1 nM"}, {"molecule": "O=c1c(-c2ccc(F)cc2)nc2cnc(Nc3ccccc3)nc2n1Cc1cccs1", "max dye-equivalent concentration": "inconclusive: 2.3 nM"}, {"molecule": "Cc1cccc(CNc2ncnc3ccc(-c4c(C)noc4C)cc23)c1", "max dye-equivalent concentration": "inactive"}, {"molecule": "CCSc1nnc(-c2cccs2)o1", "max dye-equivalent concentration": "inactive"}, {"molecule": "O=c1cc(CO)oc(CN2CCN(c3ccccc3)CC2)c1O", "max dye-equivalent concentration": "inactive"}, {"molecule": "C[C@H](O)C(=O)C1=Nc2c(nc(N)[nH]c2=O)NC1", "max dye-equivalent concentration": "active: 330 nM"}, {"molecule": "Oc1ccc2ccccc2c1CN(Cc1c(O)ccc2ccccc12)C1CCCCC1", "max dye-equivalent concentration": "active: 15 nM"}, {"molecule": "Cc1ccc(C(=O)OCC(=O)N2CC(=O)Nc3ccccc32)s1", "max dye-equivalent concentration": "inactive"}, {"molecule": "CCOC(=O)c1sc(NC(=O)c2cc(S(=O)(=O)N3CCOCC3)ccc2C)nc1C", "max dye-equivalent concentration": "inactive"}, {"molecule": "COc1cccc(Cn2c(=O)c(-c3cc(F)cc(F)c3)nc3cnc(OC)nc32)c1", "max dye-equivalent concentration": "inactive"}, {"molecule": "Cc1ccc(-c2csc3ncnc(Sc4nnc(CN5CCCCCC5=O)o4)c23)cc1", "max dye-equivalent concentration": "inactive"}, {"molecule": "O=C(O)c1ccc(COc2ccc(CO)cc2Cl)cc1", "max dye-equivalent concentration": "inactive"}, {"molecule": "CC1CCCCN1CCNC(=O)C1CCN(S(=O)(=O)N2CCCCC2)CC1", "note": "(stereo unspecified)", "max dye-equivalent concentration": "inconclusive: 1.4 nM"}, {"molecule": "CCn1cc(C(=O)NC2CCCCC2C)c(=O)c2ccc(C)nc21", "note": "(stereo unspecified)", "max dye-equivalent concentration": "inconclusive: 2.1 nM"}, {"molecule": "CCn1c(CCNC(=O)c2cccs2)nnc1SCC(=O)NC1CCCCC1", "max dye-equivalent concentration": "inactive"}, {"molecule": "O=C(c1cc(N2CCCCC2)nc2ccccc12)N1CCOCC1", "max dye-equivalent concentration": "active: 70 nM"}, {"molecule": "Cc1cc2nnc(SCC(=O)NCc3ccco3)n2c2ccccc12", "max dye-equivalent concentration": "inactive"}, {"molecule": "O=C(NCCN1CCN(C(=O)NC2CCCCC2)CC1)NC1CCCCC1", "max dye-equivalent concentration": "inconclusive: 1.4 nM"}, {"molecule": "CCCCOn1c(C)c(C(=O)OCC)c2c3no[n+]([O-])c3ccc21", "max dye-equivalent concentration": "inactive"}, {"molecule": "CCc1nnc(NC(=O)CSc2nnc(-c3ccncc3)n2Cc2ccccc2)s1", "max dye-equivalent concentration": "inconclusive: 1.1 nM"}, {"molecule": "COCc1cc(=O)n2[nH]c(C)cc2n1", "max dye-equivalent concentration": "inactive"}, {"molecule": "Cc1ccc2nc(NC3=NCN(CCN4CCOCC4)CN3)nc(C)c2c1", "max dye-equivalent concentration": "inconclusive: 3.5 nM"}, {"molecule": "COc1oc(-c2ccccc2)nc1C(F)(F)F", "max dye-equivalent concentration": "inactive"}, {"molecule": "CS(=O)(=O)N1CCCC(C(=O)NCc2ccc(F)cc2)C1", "note": "(stereo unspecified)", "max dye-equivalent concentration": "inconclusive: 3.1 nM"}, {"molecule": "CN(C)Cc1cc(C(F)(F)F)ccc1C(O)(c1ccccc1)c1ccccc1", "max dye-equivalent concentration": "inactive"}, {"molecule": "CC(C)(C)c1cc(/C=C(\\C#N)C(N)=S)cc(C(C)(C)C)c1O", "max dye-equivalent concentration": "inactive"}, {"molecule": "COc1ccccc1N=c1oc2cc(O)ccc2cc1C(N)=O", "max dye-equivalent concentration": "active: 920 nM"}, {"molecule": "COc1ccc2[nH]c(C)c(CN3CCCC(C)C3)c(=O)c2c1", "note": "(stereo unspecified)", "max dye-equivalent concentration": "inconclusive: 5.7 nM"}, {"molecule": "O=C(Cn1cnc2c(nnn2Cc2ccc(Cl)cc2)c1=O)NCc1ccco1", "max dye-equivalent concentration": "inconclusive: 4.7 nM"}, {"molecule": "Cc1ccc2nc(-c3ccc(SCC(=O)Nc4cc(C)on4)nc3)[nH]c2c1", "max dye-equivalent concentration": "active: 30 nM"}, {"molecule": "Cc1cnc(CNc2cc(-c3ccccc3C(F)(F)F)ncn2)cn1", "max dye-equivalent concentration": "inconclusive: 2.2 nM"}]}]}
